Experimental data: PubChem BioAssay AID686943 (Drosophila RNAi Screening Center, 2013)
Aim: 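Knockdowns that increase or decrease active ERK after insulin receptor stimulation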 (primary screen). Cell system: Drosophila S2R+ haemocyte-like cells expressing YFP-tagged ERK (Rolled). Reagents: long dsRNA against Drosophila genes. Conditions: insulin stimulation versus unstimulated cells; dose and duration not given. Detection: 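Antibody staining for doubly phosphorylated ERK divided by ERK-YFP signal, as plate z-scores, in insulin-treated and untreated cells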. Reading the numbers: replicate 1, z-score of dpERK with insulin and replicate 2, z-score of dpERK with insulin: higher = more active ERK per ERK-YFP after insulin.
In all, the deposit lists about 23,000 reagents; shown is a random part of those that have a named target and a result. 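Extra replicates exist only for a retested subset of genes; insulin dose and duration not given; both raised and lowered dpERK matter.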 Reagents against one gene are numbered here. Further read-outs or replicates are left out here. Reagent sequences are not shown. Not given: the amount of reagent, the time to read-out.

CG32344: replicate 1, z-score of dpERK with insulin = -0.16; replicate 2, z-score of dpERK with insulin = -0.01
CG16800: replicate 1, z-score of dpERK with insulin = 0.28; replicate 2, z-score of dpERK with insulin = 0.61
CG43063: replicate 1, z-score of dpERK with insulin = -0.03; replicate 2, z-score of dpERK with insulin = 0
CG15431: replicate 1, z-score of dpERK with insulin = -1.55; replicate 2, z-score of dpERK with insulin = -1.02
Ptp99A (Protein tyrosine phosphatase 99A) #1: replicate 1, z-score of dpERK with insulin = 0.59; replicate 2, z-score of dpERK with insulin = 0.3
Ptp99A (Protein tyrosine phosphatase 99A) #2: replicate 1, z-score of dpERK with insulin = 0.46; replicate 2, z-score of dpERK with insulin = -0.28
Ptp99A (Protein tyrosine phosphatase 99A) #3: replicate 1, z-score of dpERK with insulin = -0.54; replicate 2, z-score of dpERK with insulin = -0.04
Ptp99A (Protein tyrosine phosphatase 99A) #4: replicate 1, z-score of dpERK with insulin = -0.12; replicate 2, z-score of dpERK with insulin = -0.34
Ptp99A (Protein tyrosine phosphatase 99A) #5: replicate 1, z-score of dpERK with insulin = 0.51; replicate 2, z-score of dpERK with insulin = 0.03
Ptp99A (Protein tyrosine phosphatase 99A) #6: replicate 1, z-score of dpERK with insulin = -4.56; replicate 2, z-score of dpERK with insulin = 0.58
Ptp99A (Protein tyrosine phosphatase 99A) #7: replicate 1, z-score of dpERK with insulin = 0.04; replicate 2, z-score of dpERK with insulin = 0.87
Tim17a2: replicate 1, z-score of dpERK with insulin = 0.26; replicate 2, z-score of dpERK with insulin = -0.77
Pka-R1 (Protein kinase, cAMP-dependent, regulatory subunit type 1) #1: replicate 1, z-score of dpERK with insulin = -4.09; replicate 2, z-score of dpERK with insulin = -3.28
Pka-R1 (Protein kinase, cAMP-dependent, regulatory subunit type 1) #2: replicate 1, z-score of dpERK with insulin = 1.19; replicate 2, z-score of dpERK with insulin = -0.43
CG14177 (retired record): replicate 1, z-score of dpERK with insulin = -0.13; replicate 2, z-score of dpERK with insulin = 0.31
Srpk79D (Serine-arginine protein kinase at 79D) #1: replicate 1, z-score of dpERK with insulin = 0.14; replicate 2, z-score of dpERK with insulin = 0.1
Srpk79D (Serine-arginine protein kinase at 79D) #2: replicate 1, z-score of dpERK with insulin = -0.08; replicate 2, z-score of dpERK with insulin = 0.36
His-Psi:CR31754 (pseudo): replicate 1, z-score of dpERK with insulin = -2.85; replicate 2, z-score of dpERK with insulin = -4.18
Gr59c (Gustatory receptor 59c): replicate 1, z-score of dpERK with insulin = 0.16; replicate 2, z-score of dpERK with insulin = 1
CG11911: replicate 1, z-score of dpERK with insulin = -0.81; replicate 2, z-score of dpERK with insulin = 0.13
CG32073 #1: replicate 1, z-score of dpERK with insulin = 0.16; replicate 2, z-score of dpERK with insulin = -0.16
CG32073 #2: replicate 1, z-score of dpERK with insulin = 0.01; replicate 2, z-score of dpERK with insulin = -0.2
Pitslre: replicate 1, z-score of dpERK with insulin = 1.66; replicate 2, z-score of dpERK with insulin = 0.89
Tsp42Ef (Tetraspanin 42Ef): replicate 1, z-score of dpERK with insulin = 0.45; replicate 2, z-score of dpERK with insulin = -0.59
CG15631: replicate 1, z-score of dpERK with insulin = 0.07; replicate 2, z-score of dpERK with insulin = -0.75
CG33177: replicate 1, z-score of dpERK with insulin = 0.9; replicate 2, z-score of dpERK with insulin = 0.42
CG30015 #1: replicate 1, z-score of dpERK with insulin = 0.12; replicate 2, z-score of dpERK with insulin = 0.98
CG30015 #2: replicate 1, z-score of dpERK with insulin = 0.4; replicate 2, z-score of dpERK with insulin = 0.34
CG30015 #3: replicate 1, z-score of dpERK with insulin = 0.24; replicate 2, z-score of dpERK with insulin = -0.44
peb (pebbled): replicate 1, z-score of dpERK with insulin = -0.75; replicate 2, z-score of dpERK with insulin = -2.31
tbrd-2: replicate 1, z-score of dpERK with insulin = -0.24; replicate 2, z-score of dpERK with insulin = 0

Limited to “replicate 2, z-score of dpERK with insulin”, for 3 of the entries above:
Ptp99A (Protein tyrosine phosphatase 99A) #6 = 0.58
Ptp99A (Protein tyrosine phosphatase 99A) #7 = 0.87
Tim17a2 = -0.77
